Record: PubChem BioAssay AID1159578 (Peter MacCallum Cancer Centre, 2015)
Here is one part, drawn at random, of about 18,000 reagents. About 1,030 of them (5.7%) were called active. 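Inactive calls also include pools with fewer than 3300 nuclei, whose migration was not assessed.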 The raw values are shown without normalisation. Entries without a mark were called inactive.

Test: 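Genome-wide hunt for genes controlling movement of lymphatic endothelial cells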 (primary screen)
Cell system: human lymphatic endothelial cells
Reagent: siRNA pool against human genes, 40 nM
Duration: 48 h after transfection
Measurement: 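High-content imaging of dye-stained cells in a scratch assay measures filled wound area and nuclei per well; duplicate means given as ratio to mock and robust z-score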
Direction: migration robust z-score: higher = faster migration into the scratch; migration relative to mock: higher = more scratch area covered than mock; nuclei per well: higher = more cells in the well
Call rule: 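Pools averaging fewer than 3300 nuclei are never called; remaining pools count as changed when migration robust z lies outside -2 to 2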
Calls: active = migration changed; inactive = no migration change, or too few cells

gene knocked down | migration robust z-score | migration class with cell-count check | migration relative to mock | nuclei per well, duplicate mean
PSORS1C1 | 0.03 | migration z between -2 and 2; enough cells | 0.9 | 5654
CRB3 | -0.39 | migration z between -2 and 2; enough cells | 0.78 | 5148
TOGARAM2 | -0.24 | migration z between -2 and 2; enough cells | 0.82 | 5499
PTGES | -0.86 | migration z between -2 and 2; enough cells | 0.66 | 7710
DNAH11 | 0.08 | migration z between -2 and 2; enough cells | 0.82 | 5604
GPR37L1 | 1.35 | migration z between -2 and 2; enough cells | 1.06 | 4940
TEX28 | -0.03 | migration z between -2 and 2; enough cells | 0.87 | 5594
SORD | -1.24 | under 3300 nuclei; migration not judged | 0.56 | 3290
PRIMA1 | 2.12 (active) | migration z above 2; enough cells | 1.44 | 4966
SFI1 | 0.22 | migration z between -2 and 2; enough cells | 0.94 | 5438
HLA-K | -1.71 | migration z between -2 and 2; enough cells | 0.44 | 5832
RGS6 | 0.42 | migration z between -2 and 2; enough cells | 0.88 | 6273
PRKAG3 | -1.03 | under 3300 nuclei; migration not judged | 0.6 | 2638
OR51A2 | -1.5 | migration z between -2 and 2; enough cells | 0.5 | 4476
DCAF5 | -0.91 | migration z between -2 and 2; enough cells | 0.65 | 5816
ECT2L | 0.22 | migration z between -2 and 2; enough cells | 0.94 | 4776
MIGA1 | 1.56 | migration z between -2 and 2; enough cells | 1.28 | 4455
SUGT1 | -0.53 | migration z between -2 and 2; enough cells | 0.74 | 4257
ZNF551 | -0.8 | migration z between -2 and 2; enough cells | 0.68 | 4584
PIK3IP1 | -1.6 | migration z between -2 and 2; enough cells | 0.47 | 4808
ZNF77 | 1.77 | migration z between -2 and 2; enough cells | 1.34 | 5954
IRAK1BP1 | 0.27 | migration z between -2 and 2; enough cells | 0.96 | 5222
LAPTM5 | 1.14 | migration z between -2 and 2; enough cells | 1.19 | 4490
SRBD1 | -1.19 | migration z between -2 and 2; enough cells | 0.58 | 5506
TBR1 | 0.78 | migration z between -2 and 2; enough cells | 0.96 | 4398
STAT2 | -0.26 | migration z between -2 and 2; enough cells | 0.76 | 5362
CLDN20 | 1.12 | migration z between -2 and 2; enough cells | 1.18 | 6916
KCNT2 | -0.34 | migration z between -2 and 2; enough cells | 0.74 | 6022
PTK2B | 0.42 | migration z between -2 and 2; enough cells | 0.88 | 4999
RRP1 | -3.1 (active) | migration z below -2; enough cells | 0.08 | 5628
COX5A | -0.9 | migration z between -2 and 2; enough cells | 0.66 | 5890
VPS37B | -0.06 | migration z between -2 and 2; enough cells | 0.87 | 5198
GADD45A | 0.83 | migration z between -2 and 2; enough cells | 0.97 | 6182
HSP90AA1 | -1.92 | migration z between -2 and 2; enough cells | 0.44 | 5743

Hits (from the list above):
gene knocked down | migration robust z-score | migration class with cell-count check | migration relative to mock | nuclei per well, duplicate mean
PRIMA1 | 2.12 (active) | migration z above 2; enough cells | 1.44 | 4966
RRP1 | -3.1 (active) | migration z below -2; enough cells | 0.08 | 5628

More records:
gene knocked down | migration robust z-score | migration class with cell-count check | migration relative to mock | nuclei per well, duplicate mean
IFNAR1 | -0.48 | migration z between -2 and 2; enough cells | 0.76 | 6776
LINC03124 | 0.36 | migration z between -2 and 2; enough cells | 0.98 | 7752
SLC2A14 | 0.02 | migration z between -2 and 2; enough cells | 0.89 | 5315
UXT | -0.7 | migration z between -2 and 2; enough cells | 0.7 | 5274
KLHL23 | -1.19 | migration z between -2 and 2; enough cells | 0.57 | 6090
CNGB3 | -0.18 | migration z between -2 and 2; enough cells | 0.77 | 6544
SELP | -1.84 | migration z between -2 and 2; enough cells | 0.41 | 5996
NOXA1 | -1.07 | migration z between -2 and 2; enough cells | 0.61 | 3927
ANKRD49 | -0.35 | migration z between -2 and 2; enough cells | 0.8 | 5380
SYTL4 | -0.08 | migration z between -2 and 2; enough cells | 0.79 | 4866
CFAP410 | -0.46 | migration z between -2 and 2; enough cells | 0.76 | 5635
RHOA | -0.52 | migration z between -2 and 2; enough cells | 0.7 | 5132
NEK1 | 1.32 | migration z between -2 and 2; enough cells | 1.06 | 6415
KLK1 | 0.78 | migration z between -2 and 2; enough cells | 0.95 | 5262
CCN4 | -0.06 | migration z between -2 and 2; enough cells | 0.87 | 6152
PDIA4 | 0.65 | migration z between -2 and 2; enough cells | 0.93 | 5611
RRP12 | 1.27 | migration z between -2 and 2; enough cells | 1.21 | 6530
OTUD7A | -0.44 | migration z between -2 and 2; enough cells | 0.77 | 5764
DIS3L | 1.42 | migration z between -2 and 2; enough cells | 1.25 | 6590
SEC31B | -2.14 | under 3300 nuclei; migration not judged | 0.32 | 3285
CUZD1 | 0.46 | migration z between -2 and 2; enough cells | 1 | 5800
NRBP2 | -0.02 | migration z between -2 and 2; enough cells | 0.8 | 4996
KRT33B | -0.41 | migration z between -2 and 2; enough cells | 0.78 | 4711
